# In the supplement of paper PMC8728848:
# This is one part of the list.
# B1: Intelectin 1 (Homo sapiens), Q8WWA0 (protein)
# chain: MNQLSFLLFLIATTRGWSTDEANTYFKEWTCSSSPSLPRSCKEIKDECPSAFDGLYFLRTENGVIYQTFCDMTSGGGGWTLVASVHENDMRGKCTVGDRWSSQQGSKAVYPEGDGNWANYNTFGSAEAATSDDYKNPGYYDIQAKDLGIWHVPNKSPMQHWRNSSLLRYRTDTGFLQTLGHNLFGIYQKYPVKYGEGKCWTDNGPVIPVVYDFGDAQKTASYYSPYGQREFTAGFVQFRVFNNERAANALCAGMRVTGCNTEHHCIGGGGYFPEASPQQCGDFSGFDWSGYGTHVGYSSSREITEAAVLLFYR
# How the values were obtained:
# Test in all cases: glycan array binding signal (z-score within array); higher = stronger binding
# Settings in all cases: glycan notation: IUPAC condensed, linker removed
# Fuc(a1-2)Gal = target: Fuc(a1-2)Gal
# In short: (§1)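 Negative Z-scores can be read as non-binding. The Z-score is calculated within each array and then averaged across arrays of one protein sequence at different concentrations or buffers and across linkers. Arrays, 3228 in all, were curated from the Consortium for Functional Glycomics database and kept only where the protein sequence was available.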
# Fuc(a1-2)Gal(b1-3)GalNAc = target: Fuc(a1-2)Gal(b1-3)GalNAc
# In short: as §1
# [1] = target: Fuc(a1-2)Gal(b1-3)GalNAc(a1-3)[Fuc(a1-2)]Gal(b1-4)Glc
# In short: as §1
# [2] = target: Fuc(a1-2)Gal(b1-3)GalNAc(a1-3)[Fuc(a1-2)]Gal(b1-4)GlcNAc
# In short: as §1
# [3] = target: Fuc(a1-2)Gal(b1-3)GalNAc(b1-3)Gal
# In short: as §1
# [4] = target: Fuc(a1-2)Gal(b1-3)GalNAc(b1-3)Gal(a1-4)Gal(b1-4)Glc
# In short: as §1
# [5] = target: Fuc(a1-2)Gal(b1-3)GalNAc(b1-4)[Neu5Ac(a2-3)]Gal(b1-4)Glc
# In short: as §1
# Fuc(a1-2)Gal(b1-3)GlcNAc = target: Fuc(a1-2)Gal(b1-3)GlcNAc
# In short: as §1
# [6] = target: Fuc(a1-2)Gal(b1-3)GlcNAc(b1-2)Man(a1-3)[Fuc(a1-2)Gal(b1-3)GlcNAc(b1-2)Man(a1-6)]Man(b1-4)GlcNAc(b1-4)GlcNAc
# In short: as §1
# [7] = target: Fuc(a1-2)Gal(b1-3)GlcNAc(b1-2)Man(a1-3)[Fuc(a1-2)Gal(b1-3)GlcNAc(b1-2)Man(a1-6)]Man(b1-4)GlcNAc(b1-4)[Fuc(a1-6)]GlcNAc
# In short: as §1
# [8] = target: Fuc(a1-2)Gal(b1-3)GlcNAc(b1-3)Gal(b1-4)Glc
# In short: as §1
# [9] = target: Fuc(a1-2)Gal(b1-3)GlcNAc(b1-3)GalNAc
# In short: as §1
# [10] = target: Fuc(a1-2)Gal(b1-3)GlcNAc(b1-3)[Fuc(a1-3)[Gal(b1-4)]GlcNAc(b1-6)]Gal(b1-4)Glc
# In short: as §1
# [11] = target: Fuc(a1-2)Gal(b1-3)GlcNAc(b1-3)[Gal(b1-4)GlcNAc(b1-6)]Gal(b1-4)Glc
# In short: as §1
# [12] = target: Fuc(a1-2)Gal(b1-3)GlcNAc(b1-3)[Neu5Ac(a2-6)Gal(b1-4)GlcNAc(b1-6)]Gal(b1-4)Glc
# In short: as §1
# [13] = target: Fuc(a1-2)Gal(b1-3)[Fuc(a1-4)]GlcNAc
# In short: as §1
# [14] = target: Fuc(a1-2)Gal(b1-3)[Fuc(a1-4)]GlcNAc(b1-2)Man(a1-3)[Fuc(a1-2)Gal(b1-3)[Fuc(a1-4)]GlcNAc(b1-2)Man(a1-6)]Man(b1-4)GlcNAc(b1-4)GlcNAc
# In short: as §1
# [15] = target: Fuc(a1-2)Gal(b1-3)[Fuc(a1-4)]GlcNAc(b1-3)[Fuc(a1-3)[Gal(b1-4)]GlcNAc(b1-6)]Gal(b1-4)Glc
# In short: as §1
# [16] = target: Fuc(a1-2)Gal(b1-3)[Fuc(a1-4)]GlcNAc(b1-3)[Gal(b1-4)GlcNAc(b1-6)]Gal(b1-4)Glc
# In short: as §1
# Fuc(a1-2)Gal(b1-4)Glc = target: Fuc(a1-2)Gal(b1-4)Glc
# In short: as §1
# Fuc(a1-2)Gal(b1-4)Glc6S = target: Fuc(a1-2)Gal(b1-4)Glc6S
# In short: as §1
# Fuc(a1-2)Gal(b1-4)GlcNAc = target: Fuc(a1-2)Gal(b1-4)GlcNAc
# In short: as §1
# [17] = target: Fuc(a1-2)Gal(b1-4)GlcNAc(b1-2)Man(a1-3)[Fuc(a1-2)Gal(b1-4)GlcNAc(b1-2)Man(a1-6)]Man(b1-4)GlcNAc(b1-4)GlcNAc
# In short: as §1
# [18] = target: Fuc(a1-2)Gal(b1-4)GlcNAc(b1-2)Man(a1-3)[Fuc(a1-2)Gal(b1-4)GlcNAc(b1-2)Man(a1-6)]Man(b1-4)GlcNAc(b1-4)[Fuc(a1-6)]GlcNAc
# In short: as §1
# [19] = target: Fuc(a1-2)Gal(b1-4)GlcNAc(b1-2)[Fuc(a1-2)Gal(b1-4)GlcNAc(b1-4)]Man(a1-3)[Fuc(a1-2)Gal(b1-4)GlcNAc(b1-2)Man(a1-6)]Man(b1-4)GlcNAc(b1-4)GlcNAc
# In short: as §1
# [20] = target: Fuc(a1-2)Gal(b1-4)GlcNAc(b1-3)Gal(b1-4)GlcNAc
# In short: as §1
# [21] = target: Fuc(a1-2)Gal(b1-4)GlcNAc(b1-3)Gal(b1-4)GlcNAc(b1-3)Gal(b1-4)GlcNAc
# In short: as §1
# [22] = target: Fuc(a1-2)Gal(b1-4)GlcNAc(b1-3)GalNAc
# In short: as §1
# [23] = target: Fuc(a1-2)Gal(b1-4)GlcNAc(b1-3)[Fuc(a1-2)Gal(b1-4)GlcNAc(b1-6)]GalNAc
# In short: as §1
# [24] = target: Fuc(a1-2)Gal(b1-4)GlcNAc6S
# In short: as §1
# [25] = target: Fuc(a1-2)Gal(b1-4)[Fuc(a1-3)]GlcNAc
# In short: as §1
# [26] = target: Fuc(a1-2)Gal(b1-4)[Fuc(a1-3)]GlcNAc(b1-2)Man(a1-3)[Fuc(a1-2)Gal(b1-4)[Fuc(a1-3)]GlcNAc(b1-2)Man(a1-6)]Man(b1-4)GlcNAc(b1-4)GlcNAc
# In short: as §1
# [27] = target: Fuc(a1-2)Gal(b1-4)[Fuc(a1-3)]GlcNAc(b1-2)[Fuc(a1-2)Gal(b1-4)[Fuc(a1-3)]GlcNAc(b1-4)]Man(a1-3)[Fuc(a1-2)Gal(b1-4)[Fuc(a1-3)]GlcNAc(b1-2)Man(a1-6)]Man(b1-4)GlcNAc(b1-4)GlcNAc
# In short: as §1
# [28] = target: Fuc(a1-2)Gal(b1-4)[Fuc(a1-3)]GlcNAc(b1-3)Gal(b1-4)[Fuc(a1-3)]GlcNAc
# In short: as §1
# [29] = target: Fuc(a1-2)Gal(b1-4)[Fuc(a1-3)]GlcNAc(b1-3)Gal(b1-4)[Fuc(a1-3)]GlcNAc(b1-3)Gal(b1-4)[Fuc(a1-3)]GlcNAc
# In short: as §1
# [30] = target: Fuc(a1-2)Gal(b1-4)[Fuc(a1-3)]GlcNAc(b1-3)GalNAc
# In short: as §1
# Fuc(a1-2)Gal6S(b1-4)Glc = target: Fuc(a1-2)Gal6S(b1-4)Glc
# In short: as §1
binder,measurement,setting,value
B1,glycan array binding signal (z-score),Fuc(a1-2)Gal,2.53
same,glycan array binding signal (z-score),Fuc(a1-2)Gal(b1-3)GalNAc,-0.327
same,glycan array binding signal (z-score),[1],-0.213
same,glycan array binding signal (z-score),[2],-0.505
same,glycan array binding signal (z-score),[3],-0.951
same,glycan array binding signal (z-score),[4],0.742
same,glycan array binding signal (z-score),[5],-0.356
same,glycan array binding signal (z-score),Fuc(a1-2)Gal(b1-3)GlcNAc,0.069
same,glycan array binding signal (z-score),[6],0.043
same,glycan array binding signal (z-score),[7],-0.194
same,glycan array binding signal (z-score),[8],-0.267
same,glycan array binding signal (z-score),[9],0.22
same,glycan array binding signal (z-score),[10],0.755
same,glycan array binding signal (z-score),[11],-0.056
same,glycan array binding signal (z-score),[12],4.21
same,glycan array binding signal (z-score),[13],0.332
same,glycan array binding signal (z-score),[14],0.254
same,glycan array binding signal (z-score),[15],-0.162
same,glycan array binding signal (z-score),[16],-0.708
same,glycan array binding signal (z-score),Fuc(a1-2)Gal(b1-4)Glc,-0.58
same,glycan array binding signal (z-score),Fuc(a1-2)Gal(b1-4)Glc6S,1.1
same,glycan array binding signal (z-score),Fuc(a1-2)Gal(b1-4)GlcNAc,0.597
same,glycan array binding signal (z-score),[17],0.466
same,glycan array binding signal (z-score),[18],-0.031
same,glycan array binding signal (z-score),[19],1.21
same,glycan array binding signal (z-score),[20],-0.793
same,glycan array binding signal (z-score),[21],-0.07
same,glycan array binding signal (z-score),[22],0.21
same,glycan array binding signal (z-score),[23],-0.304
same,glycan array binding signal (z-score),[24],-0.781
same,glycan array binding signal (z-score),[25],0.924
same,glycan array binding signal (z-score),[26],1.24
same,glycan array binding signal (z-score),[27],0.518
same,glycan array binding signal (z-score),[28],0.04
same,glycan array binding signal (z-score),[29],0.276
same,glycan array binding signal (z-score),[30],1.22
same,glycan array binding signal (z-score),Fuc(a1-2)Gal6S(b1-4)Glc,-0.108
